According to patent publication US20110223127:
The exact form of at least one protein or probe is not confirmed. For part of these data: Negatives hold for the conditions tested.

Chains of the proteins cited; added tags and fusions are not shown. Lines headed by an entry give the natural chain unless they say otherwise; changes in a name come on top. Residues count along the entry.
UniProt P48061: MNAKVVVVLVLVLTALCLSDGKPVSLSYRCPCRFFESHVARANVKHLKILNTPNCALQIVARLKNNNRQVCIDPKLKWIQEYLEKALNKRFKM
UniProt P40224, 22-89: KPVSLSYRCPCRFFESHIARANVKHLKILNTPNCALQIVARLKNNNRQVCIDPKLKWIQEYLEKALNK

Key:
[1] = molecular target: SDF-1alpha (CXCL12) (Homo sapiens) (UniProt P48061); test: SPR; details: L-RNA, purified recombinant protein, mirror-image nucleic acid
[2] = molecular target: SDF-1alpha (CXCL12) (Mus musculus) (UniProt P40224); test: activity in cells; details: L-RNA, purified recombinant protein, mirror-image nucleic acid, dose not given here
[3] = molecular target: SDF-1alpha (CXCL12) (Homo sapiens) (UniProt P48061); test: activity in cells; details: L-RNA, mirror-image nucleic acid
[4] = tested on: VEGF (VEGF165); test: SPR; details: L-RNA, 5'-40 kDa PEG; no VEGF binding at the concentrations used; purified recombinant protein; mirror-image nucleic acid; variant of 193-G2-001 Spiegelmer
[5] = molecular target: SDF-1 (murine CXCL12) (Mus musculus) (UniProt P40224); test: activity in cells; details: L-RNA; 5'-30 kDa PEG; in vivo mouse HSC/HPC mobilization, 300 CD117+Ly-6A/E+ cells per uL vs 100 for vehicle; indirect; protein in cells; synthetic backbone; mirror-image nucleic acid; dose not given here
[6] = 5'-40 kDa PEG, inhibits Jurkat chemotaxis to 0.3 nM human SDF-1, synthetic backbone
[7] = 5'-40 kDa PEG, low nanomolar range, variant of 197-B2 Spiegelmer

## AGCGUGGUGUGAUCUAGAUGUAGUGGCUGAUCCUAGUCAGGUACGCU [193-C2-001 Spiegelmer]
[1]
  binding result: binds

## CGCAUGGACUGAUCCUAGUCGGUUAUGUAGAUCUAGUGUGGUGCG [revNOX-A12-JE40]
[2]; 5'-40 kDa PEG, stated no binding activity to SDF-1, no HSC/HPC mobilization in mice, variant of 193-G2-012-5'-PEG (NOX-A12-JE40)
  functional effect of the aptamer: not active

## CGCCGGGGUUAGGGCUAGAAGUCGGCCGGCG [197-B2-006-31b-5'-PEG]
[3]; [6]
  functional effect of the aptamer: active
[1]; [7]
  binding result: binds

## CGGGAGGUUAGGGCUAGAAGUCGGUCCCG [191-D5-007-5'-PEG]
[2]; 5'-40 kDa PEG, inhibits murine SDF-1 chemotaxis with same potency as human, variant of 191-D5-007 Spiegelmer
  functional effect of the aptamer: active
[3]; [6]
  functional effect of the aptamer: active
[1]; 5'-40 kDa PEG, low nanomolar range, variant of 191-D5-007 Spiegelmer
  binding result: binds

## GCCGGGGUUAGGGCUAGAAGUCGGCCGGC [197-B2-006-5'-PEG]
[3]; [6]
  functional effect of the aptamer: active
[1]; [7]
  binding result: binds

## GCGUGAAAGCAACAUGUCAAUGAAAGGUAGCCGCGC [192-A10-008 Spiegelmer]
[3]; inhibits Jurkat chemotaxis to 0.3 nM human SDF-1, 37C, synthetic backbone
  functional effect of the aptamer: active

## GCGUGAAAGCAACAUGUCAAUGAAAGGUAGCCGCGC [192-A10-008-5'-PEG]
[3]; [6]
  functional effect of the aptamer: active

## GCGUGGUGUGAUCUAGAUGUAUUGGCUGAUCCUAGUCAGGUACGC [193-G2-012-5'-PEG (NOX-A12-JE40)]
[3]; 5'-40 kDa PEG, inhibits Jurkat chemotaxis, also blocks SDF-1-induced aortic ring sprouting at 1 uM (p535), synthetic backbone
  functional effect of the aptamer: active
[4]
  binding result: no binding
[1]; 5'-40 kDa PEG, low nanomolar range, variant of 193-G2-001 Spiegelmer
  binding result: binds

## GCGUGGUGUGAUCUAGAUGUAUUGGCUGAUCCUAGUCAGGUACGC [NOX-A12-NO30]
[5]
  functional effect of the aptamer: active

## GCUGUGAAAGCAACAUGUCAAUGAAAGGUAGCCGCAGC [192-A10-001 Spiegelmer]
[2]; inhibits murine SDF-1 chemotaxis with same potency as human
  functional effect of the aptamer: active

## GCUGUGAAAGCAACAUGUCAAUGAAAGGUAGCCGCAGC [192-A10-001-5'-HES100]
[3]; 5'-100 kDa HES, chemotaxis inhibition unchanged by HES, purified recombinant protein, variant of 192-A10-001 Spiegelmer, dose not given here
  functional effect of the aptamer: active

## GCUGUGAAAGCAACAUGUCAAUGAAAGGUAGCCGCAGC [192-A10-001-5'-HES130]
[3]; 5'-130 kDa HES, chemotaxis inhibition unchanged by HES, purified recombinant protein, variant of 192-A10-001 Spiegelmer, dose not given here
  functional effect of the aptamer: active

## GCUGUGAAAGCAACAUGUCAAUGAAAGGUAGCCGCAGC [192-A10-001-5'-PEG30]
[3]; 5'-30 kDa PEG, chemotaxis inhibition unchanged by PEG, purified recombinant protein, variant of 192-A10-001 Spiegelmer, dose not given here
  functional effect of the aptamer: active

## GCUGUGAAAGCAACAUGUCAAUGAAAGGUAGCCGCAGC [192-A10-001-5'-PEG40]
[3]; 5'-40 kDa PEG, PEG has no influence on inhibition of chemotaxis, synthetic backbone, dose not given here
  functional effect of the aptamer: active

## UAAGGAAACUCGGUCUGAUGCGGUAGCGCUGUGCAGAGCU [Control Spiegelmer]
[2]; no inhibition of chemotaxis to murine SDF-1
  functional effect of the aptamer: not active
[3]; no inhibition of chemotaxis up to 1 uM, purified recombinant protein
  functional effect of the aptamer: not active

## UAAGGAAACUCGGUCUGAUGCGGUAGCGCUGUGCAGAGCU [PEGylated Control Spiegelmer]
[3]; 5'-PEG, stated not to bind SDF-1, no block of aortic ring sprouting at 1 uM, purified recombinant protein, variant of Control Spiegelmer
  functional effect of the aptamer: not active

## UGAGAUAGGGGUUAGGGCUUAAAGUCGGCUGAUUCUCA [190-A3-003 Spiegelmer]
[1]
  binding result: binds
